From patent publication US20240033354A1
No constants are given. Whether binding was seen depends on the method and setting. Some results given as binding are weak or reduced against the parent protein; the word gives no strength.

The chains behind the UniProt entries cited, without tags or fusion partners. Where a name states a change or a piece, a line headed by the entry shows the natural chain unless it says otherwise.
UniProt P18177: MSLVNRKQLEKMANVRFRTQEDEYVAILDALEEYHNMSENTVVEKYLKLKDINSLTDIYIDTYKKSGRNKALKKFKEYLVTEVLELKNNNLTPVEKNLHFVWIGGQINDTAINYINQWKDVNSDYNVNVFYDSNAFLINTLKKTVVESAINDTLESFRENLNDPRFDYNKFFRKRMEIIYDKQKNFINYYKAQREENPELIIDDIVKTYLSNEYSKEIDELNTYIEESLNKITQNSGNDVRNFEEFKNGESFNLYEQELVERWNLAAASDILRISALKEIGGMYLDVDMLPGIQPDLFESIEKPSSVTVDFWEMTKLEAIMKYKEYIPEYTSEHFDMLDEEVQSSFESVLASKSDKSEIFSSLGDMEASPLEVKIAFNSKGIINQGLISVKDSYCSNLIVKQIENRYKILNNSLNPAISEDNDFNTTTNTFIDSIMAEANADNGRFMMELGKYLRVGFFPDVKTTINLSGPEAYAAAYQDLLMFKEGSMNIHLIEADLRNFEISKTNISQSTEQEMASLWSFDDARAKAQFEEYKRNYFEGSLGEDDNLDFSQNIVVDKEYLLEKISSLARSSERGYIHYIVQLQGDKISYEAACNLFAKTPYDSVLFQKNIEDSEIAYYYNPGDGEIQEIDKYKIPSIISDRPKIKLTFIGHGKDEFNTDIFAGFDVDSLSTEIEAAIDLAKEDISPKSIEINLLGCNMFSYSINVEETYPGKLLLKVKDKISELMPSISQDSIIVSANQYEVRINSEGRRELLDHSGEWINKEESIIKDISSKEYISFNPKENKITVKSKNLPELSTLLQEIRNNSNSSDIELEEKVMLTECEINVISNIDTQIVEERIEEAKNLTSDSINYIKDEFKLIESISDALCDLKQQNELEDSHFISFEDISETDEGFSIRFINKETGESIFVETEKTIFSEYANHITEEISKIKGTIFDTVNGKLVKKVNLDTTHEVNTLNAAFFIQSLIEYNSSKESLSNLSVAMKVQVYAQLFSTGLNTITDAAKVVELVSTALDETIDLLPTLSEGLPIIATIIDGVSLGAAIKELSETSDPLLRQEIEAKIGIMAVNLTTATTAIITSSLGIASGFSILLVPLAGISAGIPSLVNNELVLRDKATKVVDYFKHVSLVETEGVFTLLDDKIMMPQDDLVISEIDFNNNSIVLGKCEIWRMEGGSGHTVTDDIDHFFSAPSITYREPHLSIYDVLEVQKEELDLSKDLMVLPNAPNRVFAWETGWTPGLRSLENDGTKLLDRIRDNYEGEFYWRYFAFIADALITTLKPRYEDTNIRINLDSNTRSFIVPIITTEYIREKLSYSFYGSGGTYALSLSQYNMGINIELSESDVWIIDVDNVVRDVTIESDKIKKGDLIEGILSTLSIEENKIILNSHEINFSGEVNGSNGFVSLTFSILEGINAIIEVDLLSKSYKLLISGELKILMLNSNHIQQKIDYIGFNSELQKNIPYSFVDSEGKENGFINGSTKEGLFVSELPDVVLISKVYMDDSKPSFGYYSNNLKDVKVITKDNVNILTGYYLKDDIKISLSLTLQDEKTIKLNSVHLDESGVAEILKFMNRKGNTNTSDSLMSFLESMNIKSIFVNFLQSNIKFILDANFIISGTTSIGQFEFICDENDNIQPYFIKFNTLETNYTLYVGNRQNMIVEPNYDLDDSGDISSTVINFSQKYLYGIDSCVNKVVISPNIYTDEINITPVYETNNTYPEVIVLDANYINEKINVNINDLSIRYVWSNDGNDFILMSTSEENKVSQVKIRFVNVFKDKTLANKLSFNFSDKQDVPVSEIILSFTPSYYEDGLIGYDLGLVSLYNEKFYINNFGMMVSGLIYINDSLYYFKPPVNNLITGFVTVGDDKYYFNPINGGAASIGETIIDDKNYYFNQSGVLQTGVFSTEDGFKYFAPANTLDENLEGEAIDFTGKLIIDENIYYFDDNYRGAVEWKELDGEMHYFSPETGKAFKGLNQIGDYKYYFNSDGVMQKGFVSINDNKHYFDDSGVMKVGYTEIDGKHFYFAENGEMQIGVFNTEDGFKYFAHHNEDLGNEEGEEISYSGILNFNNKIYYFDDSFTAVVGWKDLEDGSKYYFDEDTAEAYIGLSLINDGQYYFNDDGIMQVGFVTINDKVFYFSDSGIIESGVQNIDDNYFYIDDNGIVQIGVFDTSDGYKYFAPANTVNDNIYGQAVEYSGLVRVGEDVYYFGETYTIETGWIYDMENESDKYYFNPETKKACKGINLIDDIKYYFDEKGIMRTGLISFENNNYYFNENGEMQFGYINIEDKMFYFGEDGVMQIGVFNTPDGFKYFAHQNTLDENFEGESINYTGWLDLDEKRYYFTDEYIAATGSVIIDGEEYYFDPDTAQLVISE
UniProt Q6UVK1: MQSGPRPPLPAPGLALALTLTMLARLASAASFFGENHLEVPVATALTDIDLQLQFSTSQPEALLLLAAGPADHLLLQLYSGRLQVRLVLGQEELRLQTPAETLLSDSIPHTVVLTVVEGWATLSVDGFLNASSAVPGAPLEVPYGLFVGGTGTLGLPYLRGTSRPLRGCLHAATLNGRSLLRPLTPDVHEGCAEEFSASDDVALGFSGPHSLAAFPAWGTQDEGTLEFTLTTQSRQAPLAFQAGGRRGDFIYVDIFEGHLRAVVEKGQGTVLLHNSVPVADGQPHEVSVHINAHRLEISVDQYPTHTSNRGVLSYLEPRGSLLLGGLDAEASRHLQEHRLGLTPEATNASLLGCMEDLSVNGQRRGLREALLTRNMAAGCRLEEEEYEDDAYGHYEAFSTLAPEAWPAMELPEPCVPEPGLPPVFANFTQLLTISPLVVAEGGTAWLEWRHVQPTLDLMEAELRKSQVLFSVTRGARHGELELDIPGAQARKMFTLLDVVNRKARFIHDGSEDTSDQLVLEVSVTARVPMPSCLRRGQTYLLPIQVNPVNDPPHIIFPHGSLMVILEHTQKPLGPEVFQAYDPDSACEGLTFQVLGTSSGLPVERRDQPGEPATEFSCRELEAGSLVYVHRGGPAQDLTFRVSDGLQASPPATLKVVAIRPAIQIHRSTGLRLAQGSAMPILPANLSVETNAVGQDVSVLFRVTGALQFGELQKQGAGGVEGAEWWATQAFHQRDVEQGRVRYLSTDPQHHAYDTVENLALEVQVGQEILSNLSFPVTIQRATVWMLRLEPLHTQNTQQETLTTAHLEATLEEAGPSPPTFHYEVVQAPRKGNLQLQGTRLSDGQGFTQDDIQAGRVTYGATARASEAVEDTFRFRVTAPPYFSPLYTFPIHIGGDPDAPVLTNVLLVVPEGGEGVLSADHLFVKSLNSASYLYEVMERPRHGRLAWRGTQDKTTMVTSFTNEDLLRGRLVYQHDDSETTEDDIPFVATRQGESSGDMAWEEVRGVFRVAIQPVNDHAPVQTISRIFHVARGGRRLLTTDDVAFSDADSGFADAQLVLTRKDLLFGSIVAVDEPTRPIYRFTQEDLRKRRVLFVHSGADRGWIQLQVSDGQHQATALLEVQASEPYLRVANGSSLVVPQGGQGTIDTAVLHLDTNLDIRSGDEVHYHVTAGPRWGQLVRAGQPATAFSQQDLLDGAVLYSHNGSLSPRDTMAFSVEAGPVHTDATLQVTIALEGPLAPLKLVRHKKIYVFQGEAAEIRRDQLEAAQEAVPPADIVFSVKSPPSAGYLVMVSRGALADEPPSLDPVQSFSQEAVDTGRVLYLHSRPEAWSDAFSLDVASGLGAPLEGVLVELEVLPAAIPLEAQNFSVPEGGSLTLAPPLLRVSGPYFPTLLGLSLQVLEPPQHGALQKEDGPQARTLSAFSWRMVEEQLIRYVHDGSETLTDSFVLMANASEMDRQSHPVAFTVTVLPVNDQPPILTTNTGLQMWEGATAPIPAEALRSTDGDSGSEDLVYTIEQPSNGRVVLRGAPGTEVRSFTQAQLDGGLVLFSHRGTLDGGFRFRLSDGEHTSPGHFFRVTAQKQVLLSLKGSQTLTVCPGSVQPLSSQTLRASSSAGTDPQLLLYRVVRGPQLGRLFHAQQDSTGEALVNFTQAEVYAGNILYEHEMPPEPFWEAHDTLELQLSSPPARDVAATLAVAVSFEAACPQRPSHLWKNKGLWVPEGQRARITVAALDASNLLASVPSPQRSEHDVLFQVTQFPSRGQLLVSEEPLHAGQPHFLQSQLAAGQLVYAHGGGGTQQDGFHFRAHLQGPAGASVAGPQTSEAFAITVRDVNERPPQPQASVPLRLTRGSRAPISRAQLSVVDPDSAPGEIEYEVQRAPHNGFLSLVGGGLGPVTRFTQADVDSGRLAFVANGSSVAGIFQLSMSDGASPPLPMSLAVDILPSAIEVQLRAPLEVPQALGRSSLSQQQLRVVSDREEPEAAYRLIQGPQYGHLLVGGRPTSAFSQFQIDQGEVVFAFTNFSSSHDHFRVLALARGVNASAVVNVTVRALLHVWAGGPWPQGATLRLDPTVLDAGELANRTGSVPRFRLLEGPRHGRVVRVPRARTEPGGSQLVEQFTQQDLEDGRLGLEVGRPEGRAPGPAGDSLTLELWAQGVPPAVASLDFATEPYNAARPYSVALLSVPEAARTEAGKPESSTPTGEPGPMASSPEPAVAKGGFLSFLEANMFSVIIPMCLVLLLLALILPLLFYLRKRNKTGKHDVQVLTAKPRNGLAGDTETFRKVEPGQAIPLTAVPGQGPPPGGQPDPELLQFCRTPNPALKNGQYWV

Experiments:
[1] = biological target: TcdB (construct not stated; partner in the pull down assays of Table 4) (Clostridium difficile, VPI10463 strain) (UniProt P18177); test: pull down assays of TcdB and CSPG4 fragments
[2] = biological target: CSPG4 (construct not stated; partner in the pull down assays of Table 4) (human) (UniProt Q6UVK1); test: pull down assays of TcdB and CSPG4 fragments
[3] = biological target: CSPG4^ECD (CSPG4 extracellular domain, residues 30-2204) (human) (UniProt Q6UVK1); test: XL-MS with DHSO on the purified TcdB-CSPG4^ECD complex

| Substance | binding [1] | binding [2] | binding [3] |
| --- | --- | --- | --- |
| CSPG4 fragment 410-551 (Repeat1; construct of Table 4) (from UniProt Q6UVK1 410-551) (receptor) | binds |  |  |
| CSPG4^ECD (CSPG4 extracellular domain, residues 30-2204) (from UniProt Q6UVK1 30-2204) (receptor) | binds |  |  |
| CSPG4^mini (CSPG4 residues 30-764) (from UniProt Q6UVK1 30-764) (receptor) | binds |  |  |
| TcdB fragment 1-2099 (from UniProt P18177 1-2099) |  | binds |  |
| Twin-Strep tagged full-length wild-type TcdB1 (expressed in E. coli) (from UniProt P18177 1-2366) |  | binds | binds |
